Data as given in PubChem BioAssay AID493014 (National Center for Advancing Translational Sciences (NCATS), 2011).
Hit rate of the full screen: of about 340,000 compounds, about 170 (0.05%) were called active. Inconclusive means that the source gave no clear call. Such entries were picked first, then a sample of the others. Calls come from the whole dose curve; as a rule, active = well fitted inhibition curve with a large enough effect in the signal ratio, with a control signal flat (not every such curve was filed as active); inconclusive = small, poorly fitted or top-dose-only effect, or effect the other way, or a change in a side signal; inactive = flat fitted curve, though single readings scatter; the % refers to the signal ratio. Potencies beside an inconclusive call are fits to weak or partial responses and may not hold up.

Assay: qHTS Assay to Find Inhibitors of Chronic Active B-Cell Receptor Signaling;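 for activity change, negative = inhibition: plate controls were basal doxycycline-induced cells for no effect and cells given 10 µM MG132 for full effect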
Conditions: ABC-DLBCL IkBa-CBG/CBR reporter, luminescence ratio (green luciferase fused to IkBa over red control in TMD8 lymphoma cells), 4 h; activity change, negative = inhibition: at 46.1 µM (top of the series) unless noted
Summary of the method: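 TMD8 ABC-DLBCL cells carrying doxycycline-inducible green luciferase fused to IkappaBalpha plus unfused red luciferase were exposed to compounds (up to 46 uM) for 4 hrs at 37C. Activity came from the overlap-corrected green/red luminescence ratio.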
Potency is the fitted concentration of half-maximal effect.

Compound	activity change, negative = inhibition	Potency
Cc1cccc(C)c1OC(=O)C(c1ccccc1)c1ccccc1	inconclusive: 7.36%	
NC(=O)CC1C(=O)N(c2ccc(Cl)cc2)C(=S)N1NC(=O)c1cccc(F)c1 (stereo unspecified)	inconclusive: -7.26%	
CCOC(=O)c1cnc2nc(C(F)(F)F)[nH]n2c1=O		inconclusive: 23.1 µM [falling, single point]
COCCCN(C(=S)NC(=O)C12CC3CC(CC(C3)C1)C2)c1c(N)n(Cc2ccccc2)c(=O)[nH]c1=O	inconclusive: 3.94%	
CC1(C)CC2CC(C)(CN2C(=O)CCCN2C(=O)c3ccccc3C2=O)C1 (stereo unspecified)	inconclusive: 1.29%	
COc1cc(OC)cc(C(=O)N/N=C/c2ccc(OC)c(COc3ccc4ccccc4c3)c2)c1		inconclusive: 22.4 µM [falling, partial curve]
CCc1cc2c(=O)c(-c3cnn(-c4ccccc4)c3)coc2c(CN2CCOCC2)c1O		inconclusive: 6.31 µM [rising, partial curve, poor fit]
Cc1ccccc1CN1C(=O)C2(OCCCO2)c2ccccc21	inactive	
COc1ccccc1-c1noc(CCC(=O)N2CCN(c3cc(C)ccc3C)CC2)n1		inconclusive: 18.4 µM [falling, single point]
CCCn1nc(NC(=O)CC)c2cc3cccc(C)c3nc21	inactive	
Cc1ccc(-c2nc3ncccn3c2Nc2ccccc2C)o1	inactive	
Cc1cc(-c2ccccc2)nc(N/N=C/c2ccccc2F)n1		inconclusive: 17.8 µM [falling, single point]
COc1ccc(S(=O)(=O)N2CCCCCC2)cc1C(=O)NCCc1ccc(F)cc1	inconclusive: -1.22%	
Cc1ccc(S(=O)(=O)CC(=O)N2CC(C)OC(C)C2)cc1 (stereo unspecified)	inactive	
Cc1ccc2c(c1)N(Cc1ccncc1)C(=O)C(C)O2 (stereo unspecified)	inactive	
O=C(CNC(=O)Cc1ccccc1)NCc1cccc(C(F)(F)F)c1	inconclusive: -63%	
O=C(CSc1nnnn1-c1ccccc1)N1CCCc2ccccc21		inconclusive: 29.1 µM [rising, partial curve, poor fit]
O=C(Cn1cc2c(n1)CCCCC2)Nc1ccccc1Cl	inconclusive: 7.55%	
Cc1nn(CC(=O)Nc2ccc3nc4n(c(=O)c3c2)CCCC4)c(C)c1[N+](=O)[O-]	inactive	
C(=N\NC1=Nc2cccc3cccc1c23)/c1cccnc1	inconclusive: -7.02%	
COc1ccc(NC(=S)NNC(=O)CNc2ccc(Cl)cc2)cc1	inactive	

Compound	activity change, negative = inhibition	Potency
O=C(COC(=O)c1ccccc1NS(=O)(=O)c1ccc(Cl)cc1)NCc1ccccc1	inconclusive: -16.7%	
CCCCc1c(O)nc(SCC(=O)N2CCCCC2)[nH]c1=O	inconclusive: 1.26%	
CN(Cc1ccon1)Cc1cn(C)nc1-c1cccc(Cl)c1	inconclusive: 2.25%	
COc1ccccc1CC(=O)c1ccc(OCc2ccccc2)cc1	inconclusive: 0.0267%	
Nc1c2c(nc3ccc(Br)cc13)N(C1CCCCC1)CC2	inconclusive: -28.6%	
Cc1ccc2[nH]c3c(N4CCc5ccccc5C4)ncnc3c2c1	inconclusive: 16.2%	
CCCn1c2ccccc2c2nnc(SC(CC)C(=O)Nc3sc4c(c3C#N)CCCC4)nc21 (stereo unspecified)		inconclusive: 6.51 µM [falling, partial curve, poor fit]
O=C(N/N=C/c1coc2ccc(Cl)cc2c1=O)c1ccc(O)cc1	inconclusive: -6.1%	
NC(=O)Nc1ccc(F)cc1	inconclusive: -23.2%	
O=C(Nc1ccc(-c2cn3c(n2)SCC3)cc1)c1ccc2ccccc2n1	inconclusive: 307%	
CNC(=O)CSc1nnc(-c2cc(C)cc(C)c2)o1	inconclusive: -2.23%	
FC(F)(F)c1cnc(NNC(=S)Nc2ccccc2Cl)c(Cl)c1	inconclusive: -26.6%	
C/C(CC1CC(COCC(C)C)OC1=O)=N\Nc1nc(-c2ccccc2)cs1 (stereo unspecified)		inconclusive: 4.61 µM [falling, partial curve]
CCC(C(=O)NCc1ccc(C)cc1)c1ccccc1 (stereo unspecified)	inactive	
COc1ccc(/C=C(/C#N)c2cccnc2)cc1OC		inconclusive: 7.94 µM [falling, partial curve, poor fit]
Cc1nc(NCCC(C)C)c2nnn(Cc3ccccc3)c2n1	inactive	
COc1ccc(CSc2nc3ccccc3c(=O)n2CCCN2CCOCC2)cc1F	inactive	
CN(C)S(=O)(=O)N(CCN1CCOCC1)Cc1ccccc1F	inactive	
O=C(/C=C/c1cccc([N+](=O)[O-])c1)N(c1ccccn1)c1ccccn1	inconclusive: 5.23%	
COc1ccccc1CNC(=O)c1cc(Sc2cccc(Cl)c2)nc2ccccc12	inactive	

In a second layout: 10 of the compounds above.
Compound | activity change, negative = inhibition | Potency
Cc1cccc(C)c1OC(=O)C(c1ccccc1)c1ccccc1 | inconclusive: 7.36% | 
NC(=O)CC1C(=O)N(c2ccc(Cl)cc2)C(=S)N1NC(=O)c1cccc(F)c1 (stereo unspecified) | inconclusive: -7.26% | 
CCOC(=O)c1cnc2nc(C(F)(F)F)[nH]n2c1=O |  | inconclusive: 23.1 µM [falling, single point]
COCCCN(C(=S)NC(=O)C12CC3CC(CC(C3)C1)C2)c1c(N)n(Cc2ccccc2)c(=O)[nH]c1=O | inconclusive: 3.94% | 
CC1(C)CC2CC(C)(CN2C(=O)CCCN2C(=O)c3ccccc3C2=O)C1 (stereo unspecified) | inconclusive: 1.29% | 
COc1cc(OC)cc(C(=O)N/N=C/c2ccc(OC)c(COc3ccc4ccccc4c3)c2)c1 |  | inconclusive: 22.4 µM [falling, partial curve]
CCc1cc2c(=O)c(-c3cnn(-c4ccccc4)c3)coc2c(CN2CCOCC2)c1O |  | inconclusive: 6.31 µM [rising, partial curve, poor fit]
Cc1ccccc1CN1C(=O)C2(OCCCO2)c2ccccc21 | inactive | 
COc1ccccc1-c1noc(CCC(=O)N2CCN(c3cc(C)ccc3C)CC2)n1 |  | inconclusive: 18.4 µM [falling, single point]
CCCn1nc(NC(=O)CC)c2cc3cccc(C)c3nc21 | inactive | 
